Measured values as given in PubChem BioAssay (NCATS).
Inconclusive means that the source gave no clear call. Such entries were picked first, then a sample of the others. Where the call is inconclusive, the potency comes from a doubtful curve fit. The source made the active and inactive calls. Calls follow the shape of the dose curve; as a rule, active = well fitted cell-killing curve with a large enough effect; inconclusive = small, poorly fitted or top-dose-only effect, or effect the other way; inactive = no such curve, though single readings can be large or run the other way.

Experiment: Quantitative highthroughput screen to assess conditional lethalithy of NOMO1 cells grown in Human Plasma-Like Medium with dialyzed fetal bovine serum (HPLM+ds) (AID 1963878); also: nearly all actives have a fitted effect of over 35% in size
Conditions: NOMO1 AML cells in HPLM+ds, CellTiter-Glo viability, 48 h; viability: at 45.8 µM (top of the series)
Excerpt: Assay Provider: Jason Cantor Ph.D.
Department of Biochemistry
University of Wisconsin-Madison, Madison, WI, USA
Chemical screening studies have identified drug sensitivities across hundreds of cancer cell lines but most putative therapeutics fail to translate. Discovery and development of drug candidates in models that more accurately reflect nutrient levels in human blood is a major challenge. Here we performed high-throughput screens in conventional versus Human Plasma-Like Medium (HPLM) to identify compounds that were "missed" when screening using the artificial culture condition. Sets of conditional anticancer compounds spanned phases of clinical development and included non-oncology drugs were assessed. […] We also traced conditional phenotypes for several chemotherapeutics to availability of HPLM-specific metabolites and confirmed others for compounds whose reported targets are encoded by nonessential genes. Our findings establish generalizable strategies for exploiting conditional lethality in HPLM to reveal therapeutic candidates and mechanisms of action in cancer cells.
Described herein are the results of each viability screens against three cell lines: NOMO1 (an acute myeloid leukemia cell line); P12-Ichikawa (a T-cell acute lymphoblastic leukemia); and SEM (a B-cell ALL). Each assay was screened using 3 different cell culture media: homemade human plasma-Like medium with 10% dialyzed fetal bovine serum (HPLM+ds); RPMI1640 with 10% untreated FBS and 5mM glucose (RPMI+s); and RPMI1640 with 10% dialyzed fetal bovine serum and 5 mM glucose (RPMI+ds).
PROTOCOL TABLE (as described by Inglese J, Shamu CE and Guy RK. 2007)
SEQUENCE No. (e.g., 1, 2, 3, etc.); […] (e.g., Cells, Incubation, Reagent, etc.); VALUE and DESCRIPTION.
1; Cells; 5 uL; white, solid bottom 1536-well Greiner assay plate.
2; Compounds; 23 nL; Kalypsis pin tool (Wako USA) equipped with a 1536-well pin head to transfer to the assay plates.
3; Incubation; 48 hours; 37C incubation.
4; Reagent; 3 uL; CellTiter Glo (Promega).
5; Incubation; 5 min, room temperature
6; Detection; Luminescence, Viewlux PerkinElmer.
NOTES (numbers refer to Sequence numbers above)
1. Briefly, 5 ul of cell reagent was dispensed using a Multidrop Combi Dispenser. The NOMO1 and SEM cells were plated at 500 cells/well and the P12-Ichikawa line at 1000 cells/well.
2. After seeding the cells, 23 nL of MIPE 4.1 library compounds (in DMSO) were added to each plate using a Kalypsys 1536 Pintool dispenser. Bortezomib at final concentration of […] and DMSO were added to each plate as positive and negative controls respectively. For each screen, MIPE 4.1 compounds were added over an eleven-point concentration range […] in 3-fold dilutions.
3. Each plate was covered with a stainless steel gasketed lid to prevent evaporation and incubated for 48 hour at 37C, 95% relative humidity, and 5% CO2.
4-5. Three microliter CellTilter-GloTM luminescent substrate mix (Promega) reagent was added to the assay plate and incubated at room temperature for 5 min.
6. The luminescence signal was measured using a ViewLux (PerkinElmer) multiplate reader with a 2 second exposure time per plate. Data for each compound were normalized as percent viability such that measurements for DMSO and the empty well controls in each plate were defined as 100% and 0%, respectively.
Potency is read from the fitted curve at half-maximal effect.

| Compound | Potency | viability |
| --- | --- | --- |
| C[C@@H](Oc1cc(-n2cnc3ccc(CN4CCN(C)CC4)cc32)sc1C(N)=O)c1ccccc1C(F)(F)F | inconclusive: 29.6 nM [cytotoxic, full curve] | – |
| CCOc1cc2ncc(C#N)c(Nc3ccc(F)c(Cl)c3)c2cc1NC(=O)C=CCN(C)C | active: 4690 nM | – |
| CN(C)c1ccc(C2Nc3ccc4ccccc4c3C3=C2C(=O)CC(C)(C)C3)cc1Br (stereo not given) | – | inactive: 94.2% |
| C[C@]1(c2nc3c(C(N)=O)cccc3[nH]2)CCCN1 | inconclusive: 37200 nM [cytotoxic, single point] | – |
| NC(=O)NO | active: 2960 nM | – |
| Cc1cnc(NC(=O)Nc2cc(Br)c(C)cc2OC[C@@H]2CNCCO2)cn1 | active: 1180 nM | – |
| CCCCCCCCCC(=O)N[C@@H](Cc1c[nH]c2ccccc12)C(=O)N[C@H](CC(N)=O)C(=O)N[C@@H](CC(=O)O)C(=O)N[C@@H]1C(=O)NCC(=O)N[C@@H](CCCN)C(=O)N[C@@H](CC(=O)O)C(=O)N[C@H](C)C(=O)N[C@@H](CC(=O)O)C(=O)NCC(=O)N[C@H](CO)C(=O)N[C@@H]([C@@H](C)CC(=O)O)C(=O)N[C@@H](CC(=O)c2ccccc2N)C(=O)O[C@@H]1C | – | inactive: 92% |
| CN[C@H]1CCc2cc(OC)c(OC)c(OC)c2-c2ccc(OC)c(=O)cc21 | inconclusive: 4.7 nM [cytotoxic, full curve] | – |
| CON=C(C(=O)N[C@@H]1C(=O)N2C(C(=O)O)=C(Cn3ccc(=N)n3CCO)CS[C@H]12)c1csc(N)n1 | inconclusive: 20900 nM [rising, partial curve, poor fit] | – |
| CN1CCN(c2cccc(Nc3nc4c(-c5ccc(S(C)(=O)=O)cc5)cccn4n3)c2)CC1 | inconclusive: 11800 nM [cytotoxic, partial curve] | – |
| NC1(Cc2ccc(Cl)cc2)CCN(c2ncnc3[nH]ccc23)CC1 | inconclusive: 10500 nM [cytotoxic, partial curve] | – |
| COC(=O)Nc1nc2ccc(C(=O)c3ccccc3)cc2[nH]1 | inconclusive: 2960 nM [cytotoxic, full curve] | – |
| Cc1cn([C@@H]2C[C@@H](O)[C@H](CO)O2)c(=O)[nH]c1=O | inconclusive: 26400 nM [cytotoxic, partial curve, poor fit] | – |
| CC[C@@H]([C@H](C)O)n1ncn(-c2ccc(N3CCN(c4ccc(OCC5CO[C@@](Cn6cncn6)(c6ccc(F)cc6F)C5)cc4)CC3)cc2)c1=O (stereo not given in full) | – | inactive: 98.6% |
| CCOC1OC(=O)C[C@H]1NC(=O)[C@@H]1CCCN1C(=O)[C@@H](NC(=O)c1ccc(N)c(Cl)c1)C(C)(C)C (stereo not given in full) | inconclusive: 332 nM [cytotoxic, full curve] | – |
| NCCCC(O)(P(=O)(O)O)P(=O)(O)O | inconclusive: 11800 nM [cytotoxic, partial curve] | – |
| COC(=O)N[C@H](C(=O)N[C@@H](Cc1ccccc1)[C@@H](O)CN(Cc1ccc(-c2ccccn2)cc1)NC(=O)[C@@H](NC(=O)OC)C(C)(C)C)C(C)(C)C | – | inactive: 96.7% |
| Nc1ncn([C@H]2C[C@H](O)[C@@H](CO)O2)c(=O)n1 | inconclusive: 2960 nM [cytotoxic, full curve] | – |
| Nc1ccn(C2CO[C@H](CO)O2)c(=O)n1 (stereo not given in full) | – | inactive: 85.6% |
| COc1cc(S(C)(=O)=O)ccc1Nc1nc2ccc(-c3ccc(NC(=O)[C@H](C)c4ccc(F)cc4)cc3)cn2n1 | inconclusive: 933 nM [cytotoxic, full curve, poor fit] | – |

| Compound | Potency | viability |
| --- | --- | --- |
| C[C@]12C=CC(=O)C=C1CC[C@@H]1[C@@H]2[C@@H](O)C[C@@]2(C)[C@@H]1CC[C@]2(O)C(=O)CO | inconclusive: 26400 nM [cytotoxic, single point] | – |
| Cc1ccccc1C(C(=O)NC1CCCCC1)N(C(=O)Cn1ccnc1C)c1cccc(F)c1 (stereo not given) | – | inactive: 97.7% |
| COc1ccc2c(c1OC)C(=O)OC2[C@H]1c2c(cc3c(c2OC)OCO3)CCN1C (stereo not given in full) | active: 148 nM | – |
| N#CC(=C(N)Sc1ccc(N)cc1)c1ccccc1C(F)(F)F | inconclusive: 935 nM [cytotoxic, full curve] | – |
| Cc1cccc(Nc2ccncc2S(=O)(=O)NC(=O)NC(C)C)c1 | inconclusive: 37200 nM [cytotoxic, single point] | – |
| COc1cc(Nc2ncc3c(n2)-c2ccc(Cl)cc2C(c2c(F)cccc2OC)=NC3)ccc1C(=O)O | inconclusive: 74.3 nM [cytotoxic, full curve] | – |
| CC=C(C)C(=O)O[C@H]1C(C)=C[C@]23C(=O)[C@@H](C=C(CO)[C@@H](O)[C@]12O)[C@H]1[C@@H](C[C@H]3C)C1(C)C | inconclusive: 59 nM [cytotoxic, full curve] | – |
| Nc1ccn([C@@H]2O[C@H](CO)[C@@H](O)C2O)c(=O)n1 (stereo not given in full) | active: 1180 nM | – |
| CCNC(=O)Nc1ccc(-c2nc3c(c(N4CCOC[C@H]4C)n2)CCN(C2COC2)C3)cc1 | inconclusive: 1480 nM [cytotoxic, full curve] | – |
| Nc1cccc2c1C(=O)N(C1CCC(=O)NC1=O)C2=O (stereo not given) | inconclusive: 23500 nM [cytotoxic, single point] | – |
| CCC[C@H]1C[C@H](C(=O)N[C@@H]([C@@H]2O[C@@H](SC)[C@@H](O)[C@@H](O)[C@@H]2O)[C@H](C)Cl)N(C)C1 | – | inactive: 93.6% |
| CN1C(C(=O)Nc2ccccn2)=C(O)c2ccccc2S1(=O)=O | inconclusive: 14800 nM [cytotoxic, partial curve] | – |
| CNC(=O)c1ccc2cc(C3(O)CCn4cncc43)ccc2c1 (stereo not given) | – | inactive: 101% |
| Clc1cccc(-c2nnnn2Cc2cccnc2)c1Cl | inconclusive: 1180 nM [cytotoxic, full curve] | – |
| O=c1cc(-c2ccc(O)cc2)oc2cc(O)cc(O)c12 | inconclusive: 18700 nM [cytotoxic, partial curve, poor fit] | – |
| CC[C@H](C)n1cc(C)c2c(C(=O)NCc3c(C)cc(C)[nH]c3=O)cc(-c3ccc(N4CCNCC4)nc3)cc21 | inconclusive: 33200 nM [cytotoxic, single point] | – |
| COc1cc2c(Nc3ccc(NC(=O)c4ccccc4)cc3)ncnc2cc1OCCCN1CCOCC1 | – | inactive: 88.6% |
| Cc1cc(C)c(CNC(=O)c2cc(-c3ccc(CN4CCOCC4)cc3)cc3c2cnn3C2CCCC2)c(=O)[nH]1 | inconclusive: 33100 nM [cytotoxic, single point] | – |
| CC(C)(C)COc1ccc(-n2cc(C(=O)O)cn2)cc1C#N | – | inactive: 95.7% |
| C[N+](C)(C)CC(=O)O | – | inactive: 100% |

A draw from above in order of molar mass, ascending.

| Compound | Potency | viability |
| --- | --- | --- |
| Nc1ccn(C2CO[C@H](CO)O2)c(=O)n1 (stereo not given in full) | – | inactive: 85.6% |
| CCOC1OC(=O)C[C@H]1NC(=O)[C@@H]1CCCN1C(=O)[C@@H](NC(=O)c1ccc(N)c(Cl)c1)C(C)(C)C (stereo not given in full) | inconclusive: 332 nM [cytotoxic, full curve] | – |
| COc1cc2c(Nc3ccc(NC(=O)c4ccccc4)cc3)ncnc2cc1OCCCN1CCOCC1 | – | inactive: 88.6% |
